Values of other authors, collected in US9758516B2, “Crystalline form of an anxiolytic compound” (Bionomics Limited, priority 2013, dated 2017).
For at least one compound, name, drawing or mass did not settle the structure.

Conditions: reported, see U.S. Pat. No. 8,293,737; cited from earlier work

Q: With CCn1cc(C(=O)N2CCOCC2)c(=O)c2cc(NC3Cc4ccccc4C3)cnc21 [Compound 1, 1-ethyl-6-(indan-2-ylamino)-3-(morpholine-4-carbonyl)-1,8-naphthyridin-4-one] as the compound, how does the anxiolytic effect read?
A: Its anxiolytic effect is “anxiolytic effect”.
